In the supplement of paper PMC7238544:
Where a name gives a salt, the structure may show the parent alone. ± gives the standard deviation of the averaged measurements. The list shows a part of the results. The data scatter; read single values as rough.

Columns and labels:
hAMSC donor 1 [1] = test: Hoechst total cell count ratio vs vehicle control; higher = more cells (less toxicity)
hAMSC donor 2 [2] = test: as above
hAMSC donor 2 [3] = test: transgenic luciferase activity (RLU/mg protein) fold change vs vehicle control (ratio); higher = more transgene expression
hAMSC donor 1 [4] = test: transfection efficiency (EGFP+ cells / Hoechst count) fold change vs vehicle control (ratio); hAMSC are human adipose-derived mesenchymal stem cells given an EGFP-luciferase plasmid by lipofection; higher = enhanced transfection
hAMSC donor 2 [5] = test: as above
[6] = priming compound concentration 0.2 µM
[7] = priming compound concentration 1.7 µM
[8] = priming compound concentration 13 µM

Compound | Hoechst total cell count ratio (hAMSC donor 1 [1]; [6]) | Hoechst total cell count ratio (hAMSC donor 1 [1]; [7]) | Hoechst total cell count ratio (hAMSC donor 1 [1]; [8]) | Hoechst total cell count ratio (hAMSC donor 2 [2]; [6]) | Hoechst total cell count ratio (hAMSC donor 2 [2]; [7]) | Hoechst total cell count ratio (hAMSC donor 2 [2]; [8]) | transgenic luciferase activity (hAMSC donor 2 [3]; [8]) | transfection efficiency (hAMSC donor 1 [4]; [6]) | transfection efficiency (hAMSC donor 1 [4]; [7]) | transfection efficiency (hAMSC donor 1 [4]; [8]) | transfection efficiency (hAMSC donor 2 [5]; [6]) | transfection efficiency (hAMSC donor 2 [5]; [7]) | transfection efficiency (hAMSC donor 2 [5]; [8]) | transgenic luciferase activity (hAMSC donor 2 [3]; [7])
COC(=O)C1=C(C)NC(C)=C(C(=O)OC2CCCN(Cc3ccccc3)C2)C1c1cccc([N+](=O)[O-])c1 (configuration not stated) [Benidipine hydrochloride] | 1.12 ± 0.16 | 1.12 ± 0.18 | 1.06 ± 0.095 | 1.02 ± 0.23 | 1.03 ± 0.14 | 0.891 ± 0.069 | 1.09 ± 0.26 | 1.09 ± 0.11 | 1.51 ± 0.21 | 1.28 ± 0.4 | 1.09 ± 0.23 | 1.25 ± 0.065 | 1.13 ± 0.14 | 
CCc1nn(CCCN2CCN(c3cccc(Cl)c3)CC2)c(=O)n1CCOc1ccccc1 [Nefazodone hydrochloride] | 1.34 ± 0.34 | 1.27 ± 0.1 | 1.66 ± 0.38 | 1.07 ± 0.031 | 1.13 ± 0.072 | 1.06 ± 0.042 | 0.591 ± 0.077 | 1.02 ± 0.2 | 1.34 ± 0.35 | 0.589 ± 0.044 | 1.05 ± 0.15 | 1.26 ± 0.36 | 0.83 ± 0.06 | 
CC(=O)OCC(=O)NCCCOc1cccc(CN2CCCCC2)c1 [Roxatidine acetate hydrochloride] | 1.46 ± 0.063 | 1.14 ± 0.25 | 1.27 ± 0.16 | 0.886 ± 0.16 | 1.11 ± 0.036 | 1.43 ± 0.026 |  | 0.743 ± 0.05 | 1.14 ± 0.11 | 1.12 ± 0.072 | 1.19 ± 0.13 | 1.27 ± 0.074 | 1.26 ± 0.15 | 0.68 ± 0.04
CCCCc1nc(Cl)c(CO)n1Cc1ccc(-c2ccccc2-c2nnn[nH]2)cc1 [Losartan potassium] | 0.91 ± 0.15 | 1.49 ± 0.3 | 1.35 ± 0.027 | 1.03 ± 0.085 | 1.08 ± 0.028 | 1.11 ± 0.22 | 0.64 ± 0.097 | 0.86 ± 0.17 | 0.891 ± 0.19 | 1.11 ± 0.14 | 0.92 ± 0.071 | 1.09 ± 0.11 | 1.21 ± 0.32 | 
O=C1Nc2ccc(Cl)cc2[C@@](C#CC2CC2)(C(F)(F)F)O1 [Efavirenz] | 1.31 ± 0.15 | 1.27 ± 0.075 | 1.18 ± 0.091 | 0.786 ± 0.088 | 0.998 ± 0.14 | 0.932 ± 0.04 | 0.907 ± 0.16 | 1.11 ± 0.32 | 1.17 ± 0.088 | 1.06 ± 0.18 | 1.28 ± 0.14 | 1.19 ± 0.19 | 1.25 ± 0.091 | 
CC(C)c1nc(CN(C)C(=O)N[C@H](C(=O)N[C@@H](Cc2ccccc2)C[C@H](O)[C@H](Cc2ccccc2)NC(=O)OCc2cncs2)C(C)C)cs1 [Ritonavir] | 1.68 ± 0.097 | 1.3 ± 0.12 | 1.59 ± 0.039 | 1.45 ± 0.053 | 1.07 ± 0.059 | 1.12 ± 0.068 | 0.635 ± 0.19 | 0.81 ± 0.1 | 1.38 ± 0.49 | 0.859 ± 0.21 | 0.994 ± 0.27 | 1.07 ± 0.23 | 0.981 ± 0.15 | 
CN(C/C=C/C#CC(C)(C)C)Cc1cccc2ccccc12 [Terbinafine hydrochloride] | 1.608 ± 0.0092 | 1.3 ± 0.15 | 1.26 ± 0.048 | 1.22 ± 0.13 | 1.23 ± 0.025 | 1.38 ± 0.23 |  | 0.954 ± 0.12 | 1.29 ± 0.23 | 1.06 ± 0.23 | 0.998 ± 0.17 | 1.26 ± 0.056 | 1.41 ± 0.15 | 0.561 ± 0.1
CN[C@H]1CC[C@@H](c2ccc(Cl)c(Cl)c2)c2ccccc21 [Sertraline hydrochloride] | 1.21 ± 0.076 | 1.34 ± 0.23 | 1.56 ± 0.098 | 1.2 ± 0.23 | 1.29 ± 0.14 | 1.48 ± 0.051 |  | 1.22 ± 0.32 | 1.13 ± 0.26 | 0.718 ± 0.14 | 1.03 ± 0.025 | 1.16 ± 0.074 | 0.905 ± 0.15 | 0.448 ± 0.081
c1ccc(-c2ccc(C(c3ccccc3)n3ccnc3)cc2)cc1 (configuration not stated) [Bifonazole] | 1.07 ± 0.044 | 1.41 ± 0.12 | 1.33 ± 0.071 | 0.952 ± 0.14 | 1.12 ± 0.093 | 1.14 ± 0.15 | 0.612 ± 0.2 | 0.858 ± 0.1 | 0.724 ± 0.12 | 0.875 ± 0.2 | 1.29 ± 0.26 | 0.841 ± 0.13 | 1.16 ± 0.12 | 
Nc1nc(O)c2ncn(CCC(CO)CO)c2n1 [Penciclovir] | 1.19 ± 0.12 | 1.12 ± 0.016 | 1.31 ± 0.043 | 1.36 ± 0.2 | 1.13 ± 0.068 | 1.14 ± 0.039 | 0.808 ± 0.2 | 1.24 ± 0.041 | 1.05 ± 0.12 | 0.653 ± 0.22 | 0.914 ± 0.22 | 1.18 ± 0.18 | 1.19 ± 0.19 | 
CN(C)CC[C@@H](c1ccc(Cl)cc1)c1ccccn1 [Dexchlorpheniramine maleate] | 1.28 ± 0.18 | 1.19 ± 0.2 | 1.26 ± 0.084 | 1.08 ± 0.1 | 1.08 ± 0.11 | 0.924 ± 0.072 | 0.971 ± 0.052 | 1.12 ± 0.22 | 1.15 ± 0.31 | 1.16 ± 0.066 | 0.992 ± 0.19 | 1.45 ± 0.12 | 1.24 ± 0.28 | 
Cc1[nH]c(=O)c(C#N)cc1-c1ccncc1 [Milrinone] | 1.35 ± 0.22 | 1.28 ± 0.38 | 1.48 ± 0.45 | 1.12 ± 0.19 | 1.04 ± 0.094 | 1.06 ± 0.18 | 0.743 ± 0.016 | 0.939 ± 0.2 | 1.33 ± 0.34 | 0.816 ± 0.19 | 1.07 ± 0.23 | 1.23 ± 0.032 | 0.961 ± 0.26 | 
CN1CCC(=C2c3ccccc3CC(=O)c3sccc32)CC1 [Ketotifen fumarate] | 1.35 ± 0.44 | 1.25 ± 0.16 | 1.54 ± 0.068 | 1.22 ± 0.096 | 1.37 ± 0.085 | 1.34 ± 0.096 |  | 0.895 ± 0.18 | 1.4 ± 0.18 | 0.874 ± 0.15 | 1.07 ± 0.17 | 1.22 ± 0.22 | 1.26 ± 0.033 | 0.419 ± 0.097
COc1ccc(C(=O)NCc2ccc(OCCN(C)C)cc2)cc1OC [Itopride hydrochloride] | 1.53 ± 0.063 | 1.37 ± 0.086 | 1.16 ± 0.052 | 1.05 ± 0.15 | 1.1 ± 0.07 | 1.52 ± 0.21 |  | 1.18 ± 0.13 | 0.961 ± 0.084 | 1.16 ± 0.094 | 1.29 ± 0.056 | 1.22 ± 0.053 | 1.01 ± 0.3 | 0.338 ± 0.1

As entered above.
CC(=O)OCC(=O)NCCCOc1cccc(CN2CCCCC2)c1 [Roxatidine acetate hydrochloride] | transfection efficiency (hAMSC donor 1 [4]; [6]): 0.743 ± 0.05
COC(=O)C1=C(C)NC(C)=C(C(=O)OC2CCCN(Cc3ccccc3)C2)C1c1cccc([N+](=O)[O-])c1 (configuration not stated) [Benidipine hydrochloride] | Hoechst total cell count ratio (hAMSC donor 2 [2]; [6]): 1.02 ± 0.23
